The numbers were not newly measured in patent US10991450B2, “Materials and methods for determining metabolizer status in humans” (priority 2012, dated 2021), which cites them from elsewhere.

The chains behind the UniProt entries cited, without tags or fusion partners.
UniProt P20815, whole entry: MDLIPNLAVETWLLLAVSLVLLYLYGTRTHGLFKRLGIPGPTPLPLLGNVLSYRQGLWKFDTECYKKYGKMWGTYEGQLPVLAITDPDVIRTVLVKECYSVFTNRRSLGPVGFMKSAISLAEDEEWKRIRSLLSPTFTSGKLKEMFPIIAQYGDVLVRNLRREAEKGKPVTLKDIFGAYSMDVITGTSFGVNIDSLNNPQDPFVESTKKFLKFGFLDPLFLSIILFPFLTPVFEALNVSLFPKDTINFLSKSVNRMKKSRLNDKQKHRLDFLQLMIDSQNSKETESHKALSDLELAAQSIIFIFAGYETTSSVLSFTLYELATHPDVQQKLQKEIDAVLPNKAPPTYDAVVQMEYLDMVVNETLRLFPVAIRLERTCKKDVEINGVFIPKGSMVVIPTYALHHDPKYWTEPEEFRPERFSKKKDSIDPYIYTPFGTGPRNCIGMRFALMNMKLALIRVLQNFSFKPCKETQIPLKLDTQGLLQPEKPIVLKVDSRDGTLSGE
UniProt P08684, whole entry: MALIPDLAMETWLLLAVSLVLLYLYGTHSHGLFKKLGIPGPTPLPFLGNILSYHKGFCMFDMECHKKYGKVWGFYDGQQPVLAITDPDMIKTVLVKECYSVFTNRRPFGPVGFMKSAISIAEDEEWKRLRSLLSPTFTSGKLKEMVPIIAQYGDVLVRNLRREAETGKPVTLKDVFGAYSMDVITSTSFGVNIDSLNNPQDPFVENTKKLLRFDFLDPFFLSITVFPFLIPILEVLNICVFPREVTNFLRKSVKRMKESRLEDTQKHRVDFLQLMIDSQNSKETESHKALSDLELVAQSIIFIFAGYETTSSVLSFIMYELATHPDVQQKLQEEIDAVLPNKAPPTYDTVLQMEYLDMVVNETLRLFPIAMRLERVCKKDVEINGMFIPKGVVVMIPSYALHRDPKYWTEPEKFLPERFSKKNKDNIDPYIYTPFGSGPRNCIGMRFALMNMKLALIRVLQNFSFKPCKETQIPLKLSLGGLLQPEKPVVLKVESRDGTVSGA

The target of one series is CYP3A5 (Homo sapiens, UniProt P20815). The conditions noted are these: reported in vitro study.
The target of another series is CYP3A4 (Homo sapiens, UniProt P08684). The conditions noted are these: reported in vitro study.

As to `CC(C)c1c(C(=O)Nc2ccccc2)c(-c2ccccc2)c(-c2ccc(F)cc2)n1CC[C@@H](O)C[C@@H](O)CC(=O)O` [atorvastatin], on CYP3A5, the “share of atorvastatin metabolism CYP3A5 is responsible for” value is given as 15%. At CYP3A4, the “share of atorvastatin metabolism CYP3A4 is responsible for” value is reported as 85%.
